# Experimental data published in PubChem BioAssay (EPA / NIEHS).
# Several values for one entry are separate records, joined by “and”; a condition that tells them apart may be missing. Equal entries are not always repeated. The shares of active, inactive and inconclusive entries below differ from those in the screen. Where the call is inconclusive, the potency comes from a doubtful curve fit. Activity calls are given as the source filed them. How the source made its calls: active means hit-call score of the fitted dose curve at least 0.9, where 1 is the maximum; inconclusive means response in the unintended direction; inactive means score below 0.9.
# Test: TOX21_p53_BLA_p3_viability: Viability Assessment in the Tox21 HCT-116 p53 Agonism Beta-lactamase Assay, Phase 3 (AID 2283593);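 further: cells exposed to compound for 16 h before reading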
# Text: TOX21_p53_BLA_p3 is a cell-based, single-readout assay that uses HCT116, a human intestinal cell line, […] in a 1536-well plate.TOX21_p53_BLA_p3_viability is an assay readout measuring cellular ATP content and detected with CellTiter-Glo Luciferase-coupled ATP quantitation.TOX21_p53_BLA_p3_viability used a type of viability reporter where loss-of-signal activity can be used to understand changes in the cell viability. Furthermore, this assay endpoint can be referred to as a secondary readout, because this assay has produced multiple assay endpoints where this one serves a viability function. To generalize the intended target to other relatable targets, this assay endpoint is annotated to the cell cycle intended target family, where the subfamily is cytotoxicity.
# Thawing Method: Place 14 mL of pre-warmed thaw medium into a 15 mL of conical tub. Remove the vial of cells to be thawed from liquid nitrogen and thaw rapidly by placing at 37C in a water bath with gentle agitation for 1-2 minutes. Decontaminate the vial by wiping with 70% ethanol before opening in a biological safety cabinet. Transfer the vial contents drop-wise into 14 mL of thaw medium in a sterile 15-mL conical tub. Centrifuge cells at 900 rpm for 4 minutes and resuspend in thaw medium. Transfer contents to the T75 tissue culture flask containing Thaw Medium and place flask in a humidified 37C/5% CO2 incubator. Switch to growth medium at first passage.Propagation Method: Aspirate medium, rinse once in DPBS, add 0.25% Trypsin/EDTA and swirl to coat the cell evenly. Add an equal volume of Growth Medium to inactivate Trypsin after 2-3 minutes incubation at 37C. Centrifuge cells at 900 rpm for 4 minutes and resuspend in growth medium. Cell should be passage or fed at least twice a week.Assay Protocol: Harvest cells from culture in growth medium and resuspend in assay medium. 2.2 Dispense 4000 cells/5 uL/well into 1536-well black/clear bottom plates using a Multidrop dispenser. After the cells were incubated at 37C for 5 hours, 23 nL of compounds dissolved in DMSO were transferred to the assay plate by a PinTool resulting in a 217-fold dilution. Incubate the plates for 16 hours at 37C, 5% CO2. Add 1 uL of 6X LiveBLAzer FRET B/G (CCF4-AM) Substrate Mixture to each well using a BioRAPTR dispenser and incubate the plates at room temperature for 2 hours. Measure fluorescence intensity at 460 and 530 nm emission and 405 nm excitation by an Envision detector. Data is expressed as the ratio of 460nm/530nm emissions. Add 4 uL of Cell-titer Glo to each well using BioRAPTR and incubate the plates at room temperature for […]. For cell viability readout that measures cytotoxicity, 4 ul/well of CellTiter-Glo reagent was added into the assay plates using a Flying Reagent Dispenser. After 30 min incubation at room temperature, the luminescence intensity in the plates was measured using a ViewLux plate reader.
SMILES,AC50,outcome
O=C(O)[C@@H]1C[C@H](CP(=O)(O)O)CCN1,inconclusive: 23 µM,
N.N.O=C([O-])C1(C(=O)[O-])CCC1.[Pt+4],inconclusive: 23 µM,
N/C(=N\N=Cc1ccc(Cl)cc1)NN=Cc1ccc(Cl)cc1,active: 42.7 µM,
C[C@@H]1O[C@@H](OC[C@H]2O[C@@H](Oc3c(-c4ccc(OCCO)c(OCCO)c4)oc4cc(OCCO)cc(O)c4c3=O)[C@H](O)[C@@H](O)[C@@H]2O)[C@H](O)[C@H](O)[C@H]1O,inconclusive: 23 µM,
CCC(=O)OC,inconclusive: 1.23 µM,
C=CC1=C(C)C2=CC3=NC(=C(CC(=O)[O-])C4=NC(=C(C)C4=C([O-])[O-])C=c4[n-]c(c(C)c4CC)=CC1=N2)[C@@H](CCC(=O)[O-])[C@@H]3C.[Cu+2].[Na+].[Na+].[Na+],inconclusive: 0.000223 µM,
O=c1[nH]cnc2nc[nH]c12,inconclusive: 15.8 µM,
CCCc1cc(C(N)=S)ccn1,,inactive
Cc1nc2n(c(=O)c1CCN1CCC(c3noc4cc(F)ccc34)CC1)CCC[C@H]2O,inconclusive: 23 µM,
COc1ccc(N=[N+]([O-])c2ccc(OC)cc2)cc1,inconclusive: 45.7 µM,
c1ccc(CN(CC2=NCCN2)c2ccccc2)cc1,inconclusive: 23 µM,
Oc1cc(O)c(Cl)cc1Cl,inconclusive: 47.1 µM,
Cc1cc(C(=O)O)ccc1[N+](=O)[O-],inconclusive: 46.2 µM,
C[C@@H]1C\C=C/C=C/C=C/C=C/[C@H](O[C@@H]2O[C@H](C)[C@@H](O)[C@H](N)[C@@H]2O)C[C@@H]2O[C@](O)(C[C@@H](O)C[C@@H]3O[C@@H]3/C=C\C(=O)O1)C[C@H](O)[C@H]2C(=O)O,inconclusive: 23 µM,
OC[C@]1(O)OC[C@@H](O)[C@H](O)[C@@H]1O,inconclusive: 23 µM,inactive
CCN(CC)CCc1nc(-c2ccccc2)no1,inconclusive: 10.3 µM,
CN1CC(=O)N/C1=N/C(=O)Nc1cccc(Cl)c1,inconclusive: 0.00121 µM,
Cc1ccc2c(c1)c1c3n2CCNC3CCC1 (stereo not given),inconclusive: 23 µM,
CCCCCCCCCCCCCCCCCCCCCC(=O)Nc1ccn([C@@H]2O[C@H](CO)[C@@H](O)[C@@H]2O)c(=O)n1,inconclusive: 23 µM,
O=C(O)c1ccccc1Cl,,inactive

SMILES,AC50,outcome
CC(=O)Oc1ccc([N+](=O)[O-])cc1CCl,,inactive
CN(C)CCOC(c1ccc(Cl)cc1)c1ccccn1 (stereo not given),inconclusive: 23 µM,
N#C/C(=C1/SC[C@@H](c2ccc(Cl)cc2Cl)S1)n1ccnc1,,inactive
CC(=O)[C@@]1(O)CC[C@H]2[C@@H]3C[C@H](C)C4=CC(=O)CC[C@]4(C)[C@H]3CC[C@@]21C,inconclusive: 23 µM,
CCCCCCCCCC(=O)N(C)C,inconclusive: 46.7 µM,
CCCCCCN,inconclusive: 46.1 µM,
CNC(=O)C[C@@H](N)C(=O)N[C@@H](C(=O)N[C@@H]1C(=O)N2[C@@H]1SC(C)(C)[C@@H]2C(=O)O)c1ccc(O)cc1,inconclusive: 0.474 µM,
CC(CCC(=O)O)C(=O)O (stereo not given),inconclusive: 46.1 µM,
CCOC(=O)c1cccnc1,,inactive
CC1=C(C(=O)O)N2C(=O)[C@@H](NC(=O)[C@H](N)c3ccc(O)cc3)[C@H]2SC1,inconclusive: 10.3 µM,
CC(O)CN(C)C (stereo not given),inconclusive: 0.0272 µM,
O=C(OC(=O)c1ccccc1)c1ccccc1,,inactive
COC(=O)[C@H]1[C@H]2C[C@H]3c4[nH]c5ccccc5c4CCN3C[C@H]2CC[C@@H]1O,,inactive
Nc1nc(/C(=C/CC(=O)O)C(=O)N[C@@H]2C(=O)N3C(C(=O)O)=CCS[C@H]23)cs1,inconclusive: 39.7 µM,
CN1CC(O)c2cc(N=NC(N)=O)c(O)cc21 (stereo not given),,inactive
CC(=O)Nc1ccc(C(=O)O)cc1,inconclusive: 83.8 µM and inconclusive: 23 µM,
CCCCCCCCCC#N,inconclusive: 45.9 µM,
SCCCCCCCCS,inconclusive: 46.1 µM,
NC(=S)Nc1cccc2ccccc12,inconclusive: 2.37 µM,

# Some of the entries so far, with tabs:
SMILES	AC50	outcome
O=c1[nH]cnc2nc[nH]c12	inconclusive: 15.8 µM	
c1ccc(CN(CC2=NCCN2)c2ccccc2)cc1	inconclusive: 23 µM	
CCCCCCCCCC#N	inconclusive: 45.9 µM	
